Results deposited as PubChem BioAssay AID1671195 (Yale University, 2021)
Test: 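Genes whose knockdown alters LDL uptake in liver cancer cells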 (primary screen). System: human Huh7 hepatoma cells. Knock-down reagent: siRNA pool against human genes, 18 nM. Duration: about 2 to 2.5 days of knockdown, then 8 h LDL uptake. Challenge: DiI-labelled LDL at 30 µg/ml for 8 h, in lipoprotein-deficient serum medium. Read-out: 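Fluorescent LDL signal imaged in cells, scaled to the plate median, robust z-score for each replicate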. Reading the numbers: robust z-score: higher = more LDL uptake after knockdown. Call rule: 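Active when two or more replicates show a robust z-score above 2 or below -2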.
This is one part, drawn at random, of about 22,000 deposited reagents. Of all reagents, about 1,510 (6.9%) were called active. 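Active includes knockdowns raising or lowering LDL uptake; positive z-scores mean more uptake, negative mean less.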 A number with no mark means an inactive call.

The opening 6 entries as a preview:
| gene | robust z-score, replicate 1 | robust z-score, replicate 2 | robust z-score, replicate 3 |
| --- | --- | --- | --- |
| PRSS41 | 1.47 | 1.62 | 1.97 |
| BATF | 0.0579 | -0.195 | -0.137 |
| GABRA6 | -0.889 | -1.23 | -0.5 |
| LINC00649 | 2.6 (active) | 2.18 | 2.12 |
| CFAP410 | -0.191 | 0.702 | 0.104 |
| STRADA | 0.34 | -0.327 | -0.325 |

The list itself, repeating the preview:
| gene | robust z-score, replicate 1 | robust z-score, replicate 2 | robust z-score, replicate 3 |
| --- | --- | --- | --- |
| PRSS41 | 1.47 | 1.62 | 1.97 |
| BATF | 0.0579 | -0.195 | -0.137 |
| GABRA6 | -0.889 | -1.23 | -0.5 |
| LINC00649 | 2.6 (active) | 2.18 | 2.12 |
| CFAP410 | -0.191 | 0.702 | 0.104 |
| STRADA | 0.34 | -0.327 | -0.325 |
| B4GALT2 | 0.221 | 0.415 | -0.264 |
| NSD1 | 0.2 | 0.937 | 0.0145 |
| NDUFA2 | 1.8 | 0.772 | 0.26 |
| ARL16 | 0.0833 | 0.162 | 0.000146 |
| XAGE3 | -0.464 | -0.078 | -0.0197 |
| CD72 | -0.253 | 0.307 | 1.28 |
| LOC387777 (retired record) | 0.362 | 0.845 | 0.561 |
| PROKR1 | 0.109 | -0.683 | -0.0596 |
| SLC25A18 | 0.272 | 0.271 | 0.167 |
| SETBP1 | 0.185 | -0.0685 | -0.0711 |
| ALDH3A1 | 0.601 | 0.418 | -0.412 |
| NBPF7P | -0.183 | 0.556 | 0.33 |
| BCKDK | -0.0216 | -1.33 | -0.807 |
| KLF13 | -0.633 | -0.698 | -0.296 |
| HNF4A | -0.539 | -0.862 | -1.54 |
| PLAGL1 | 1.58 | 2.22 | 1.67 |
| ADAMTS9 | 0.128 | 0.488 | -0.0487 |
| KRT83 | 0.581 | -0.734 | 0.0514 |
| ATP6AP1 | -1.12 | -1.02 | -0.978 |
| LOC440007 (retired record) | -0.121 | -0.374 | -0.473 |
| RNF126 | 0.889 | 1.38 | 0.0225 |
| PSG8 | -1.28 | -1.8 | -1.55 |
| PTPRC | -0.467 | -0.376 | -0.689 |
| GET1P1 | -1.34 | -1.55 | -1.5 |
| ROS1 | 0.355 | -0.774 | -1.07 |
| LOC441404 (retired record) | 0.318 | 0.499 | 0.5 |
| SPON1 | 0.619 | 0.429 | 0.248 |
| RNF216 | -0.456 | -0.216 | 0.143 |
| FBXL17 | 0.0436 | 0.874 | 0.409 |
| TTLL6 | -0.519 | -0.228 | 0.029 |
| ISG15 | -2.73 (active) | -1.83 | -0.306 |
| TXK | -0.0542 | 0.0347 | -0.261 |
| SLC38A11 | 0.4 | -0.143 | 0.0961 |
| MAGEB10 | 0.565 | 0.33 | 1.12 |
| HOXD10 | 0.242 | 1.31 | 0.735 |
| LOC441230 (retired record) | 0.269 | -0.358 | -0.016 |
| ZSCAN21 | 0.047 | -0.395 | 1.26 |
| NTM-AS1 | 1.3 | 0.789 | 0.294 |
| IFT88 | -2.01 (active) | -1.41 | -2.01 |
| ARNT | 0.387 | 0.506 | 0.628 |
| LOC387821 (retired record) | 0.261 | 0.272 | 0.199 |
| CORO6 | -0.567 | -0.427 | -0.82 |
| ETV5 | 2.99 (active) | 2.42 | 2.9 |
| NUTM2F | 0.354 | -0.559 | -0.527 |
| ATXN2L | 0.22 | -0.356 | 1.37 |
| GABRR3 | 0.00957 | 0.287 | -0.0471 |
| CYP26C1 | -0.123 | -0.294 | 0.0981 |
| OR2T10 | 0.839 | 0.198 | -1 |
| B3GNT8 | -0.906 | -0.486 | -0.565 |
| CTNNA1 | -0.163 | 0.585 | 1.47 |
| SRGAP3 | -0.261 | 0.152 | -1.35 |
| CLDN1 | 0.605 | 0.506 | 0.191 |
| LRP1B | -0.817 | -0.51 | -0.332 |
| PKNOX2 | 0.831 | 1.4 | 0.98 |
| ATP6V1H | 1.14 | 0.907 | 0.64 |
| ZCCHC8 | -0.23 | 1.19 | -0.396 |
| WTAP | 2.31 | 0.437 | -0.503 |
| TECTA | 0.068 | 1.89 | 3.02 |
| METTL21A | -0.565 | -0.115 | 0.616 |
| CFAP251 | 2.41 (active) | 2.23 | 1.21 |
| LOC440959 (retired record) | -0.287 | -0.402 | -0.736 |
| SPCS2 | -1.46 | -1.6 | 0.099 |
| H4C1 | -1.36 | -0.743 | -1.18 |
| LOX | -0.865 | -0.411 | -0.578 |
| KLHL10 | 2.39 | 1.44 | 1.76 |
| FPGT | 0.135 | -0.249 | 0.476 |
| FER1L5 | 0.391 | -0.118 | -0.0139 |
| ZCCHC7 | -0.15 | -0.394 | -0.458 |
| RNLS | 0.365 | 0.283 | 3.53 |
| NCBP1 | -0.626 | -0.557 | -0.229 |
| SLC52A3 | 0.212 | 1.82 | 1.89 |
| BOK | 0.988 | 0.907 | 0.0689 |
| EGLN3 | 0.2 | -0.837 | 0.231 |
| PIGX | -0.768 | 0.478 | -0.0556 |
| CREG1 | -0.467 | -0.307 | -1.28 |
| LINC02774 | -0.582 | -0.521 | -0.65 |
| JCHAIN | 0.15 | 1.06 | 0.634 |
| KCNT2 | 1.83 | 1.38 | 1.59 |
| NEUROD2 | -0.54 | -0.157 | -0.171 |
| CCL21 | 0.167 | 0.459 | 0.575 |
| KNTC1 | 1.41 | 1.76 | -0.442 |
